Laboratory results: PubChem BioAssay AID1159584 (Peter MacCallum Cancer Centre, 2016)
The whole screen tested about 18,000 reagents; this is a random part of them. No sequences are given here. Not given: the amount of reagent, the time to read-out.

Screen: 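Knock-downs that harm CDH1-null cells more than parental MCF10A cells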 (primary screen)
System: human MCF10A breast epithelial cells, parental and CDH1-null
Reagent: siRNA against human genes
Read-out: 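Cell viability by CellTiter-Glo ATP luminescence, each line scaled to the mean of mock wells across plates, then CDH1-null over parental ratio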
Scale: CDH1-null / parental viability ratio: higher = CDH1-null cells survive relatively better than parental; CDH1-null viability vs mock: higher = more viable CDH1-null cells; parental viability vs mock: higher = more viable parental cells

| gene | CDH1-null / parental viability ratio | CDH1-null viability vs mock (fraction of mock) | parental viability vs mock (fraction of mock) |
| --- | --- | --- | --- |
| GRID2 (glutamate ionotropic receptor delta type subunit 2) | 1.02 | 0.9 | 0.88 |
| PLAAT1 (phospholipase A and acyltransferase 1) | 1.02 | 0.92 | 0.9 |
| FKBP4 (FKBP prolyl isomerase 4) | 1.04 | 1.02 | 0.98 |
| UBE2L6 (ubiquitin conjugating enzyme E2 L6) | 1.28 | 0.74 | 0.58 |
| GPSM3 (G protein signaling modulator 3) | 0.98 | 0.82 | 0.84 |
| BLTP3B (bridge-like lipid transfer protein family member 3B) | 1 | 0.69 | 0.69 |
| HTR3C (5-hydroxytryptamine receptor 3C) | 1.15 | 0.99 | 0.86 |
| HSDL2 (hydroxysteroid dehydrogenase like 2) | 1.31 | 0.71 | 0.54 |
| MICOS13 | 0.73 | 0.64 | 0.88 |
| RFT1 (RFT1 glycolipid translocator homolog) | 1.2 | 0.73 | 0.61 |
| SIRT3 (sirtuin 3) | 1 | 0.55 | 0.55 |
| CTC1 (CST telomere replication complex component 1) | 1.08 | 0.84 | 0.78 |
| TNIP1 (TNFAIP3 interacting protein 1) | 0.69 | 0.55 | 0.8 |
| SLC28A3 | 0.97 | 0.64 | 0.66 |
| DUSP6 (dual specificity phosphatase 6) | 1.23 | 0.65 | 0.53 |
| EBAG9 (estrogen receptor binding site associated antigen 9) | 1.23 | 1.08 | 0.88 |
| CYTL1 (cytokine like 1) | 1.02 | 0.92 | 0.9 |
| OSM (oncostatin M) | 1.57 | 0.66 | 0.42 |
| KCTD2 (potassium channel tetramerization domain containing 2) | 1.12 | 0.92 | 0.82 |
| NALF1 (NALCN channel auxiliary factor 1) | 0.99 | 0.86 | 0.87 |
| GTPBP4 (GTP binding protein 4) | 1.03 | 0.64 | 0.62 |
| RFX7 (regulatory factor X7) | 0.82 | 0.8 | 0.97 |
| DCUN1D2 (defective in cullin neddylation 1 domain containing 2) | 0.78 | 0.72 | 0.92 |
| GOLGA2P5 (GOLGA2 pseudogene 5) | 1.17 | 0.54 | 0.46 |
| PIAS1 (protein inhibitor of activated STAT 1) | 0.8 | 0.74 | 0.93 |
| MOB1B (MOB kinase activator 1B) | 1.65 | 0.94 | 0.57 |
| VSIG4 (V-set and immunoglobulin domain containing 4) | 0.79 | 0.6 | 0.76 |
| ISOC1 (isochorismatase domain containing 1) | 0.85 | 0.8 | 0.94 |
| MEIG1 (meiosis/spermiogenesis associated 1) | 0.94 | 0.88 | 0.94 |

Just “CDH1-null viability vs mock (fraction of mock)” (11 entries from above):
SLC28A3	0.64
DUSP6 (dual specificity phosphatase 6)	0.65
EBAG9 (estrogen receptor binding site associated antigen 9)	1.08
CYTL1 (cytokine like 1)	0.92
OSM (oncostatin M)	0.66
KCTD2 (potassium channel tetramerization domain containing 2)	0.92
NALF1 (NALCN channel auxiliary factor 1)	0.86
GTPBP4 (GTP binding protein 4)	0.64
RFX7 (regulatory factor X7)	0.8
DCUN1D2 (defective in cullin neddylation 1 domain containing 2)	0.72
GOLGA2P5 (GOLGA2 pseudogene 5)	0.54

The listing continues:
| gene | CDH1-null / parental viability ratio | CDH1-null viability vs mock (fraction of mock) | parental viability vs mock (fraction of mock) |
| --- | --- | --- | --- |
| ATG9B (autophagy related 9B) | 1.05 | 0.9 | 0.86 |
| PSPH (phosphoserine phosphatase) | 1.48 | 0.92 | 0.62 |
| MMP3 (matrix metallopeptidase 3) | 1 | 0.52 | 0.52 |
| DIPK1A (divergent protein kinase domain 1A) | 1.05 | 0.9 | 0.86 |
| CAP2 (cyclase associated actin cytoskeleton regulatory protein 2) | 1.08 | 0.41 | 0.38 |
| TM9SF1 (transmembrane 9 superfamily member 1) | 0.88 | 0.81 | 0.92 |
| EMID1 (EMI domain containing 1) | 0.9 | 0.54 | 0.6 |
| DCAF6 (DDB1 and CUL4 associated factor 6) | 1.11 | 0.81 | 0.73 |
| SDHAF3 (succinate dehydrogenase complex assembly factor 3) | 1 | 0.7 | 0.7 |
| MYO3A (myosin IIIA) | 1 | 0.85 | 0.85 |
| ADRB2 (adrenoceptor beta 2) | 1.55 | 0.9 | 0.58 |
| DBX1 (developing brain homeobox 1) | 1.02 | 1 | 0.98 |
| ZNF256 (zinc finger protein 256) | 0.77 | 0.78 | 1.01 |
| IL13RA2 (interleukin 13 receptor subunit alpha 2) | 0.83 | 0.65 | 0.78 |
| FZD4 (frizzled class receptor 4) | 0.88 | 0.94 | 1.07 |
| SPIRE1 (spire type actin nucleation factor 1) | 0.96 | 0.85 | 0.89 |
| HDGFL1 (HDGF like 1) | 0.95 | 0.9 | 0.95 |
| SMOC1 (SPARC related modular calcium binding 1) | 1.29 | 0.8 | 0.62 |
| SPHK1 (sphingosine kinase 1) | 0.89 | 0.73 | 0.82 |
| APOBEC3H (apolipoprotein B mRNA editing enzyme catalytic subunit 3H) | 1.02 | 0.51 | 0.5 |
| OR2B3 (olfactory receptor family 2 subfamily B member 3) | 1 | 0.68 | 0.68 |
| OR3A3 (olfactory receptor family 3 subfamily A member 3) | 1.2 | 0.53 | 0.44 |
| PPFIA1 (PPFI scaffold protein A1) | 1.46 | 0.76 | 0.52 |
| CITED4 (Cbp/p300 interacting transactivator with ED-rich tail 4) | 1.2 | 0.98 | 0.82 |
| TRIP11 (thyroid hormone receptor interactor 11) | 1.13 | 0.94 | 0.83 |
| AMZ1 (archaelysin family metallopeptidase 1) | 1.13 | 0.44 | 0.39 |
| DOCK7 (dedicator of cytokinesis 7) | 1 | 0.28 | 0.28 |
| LETM1 | 1.22 | 1 | 0.82 |
| S100A10 (S100 calcium binding protein A10) | 1.35 | 0.77 | 0.57 |
| UBXN2B (UBX domain protein 2B) | 1.08 | 0.98 | 0.91 |
| GPX7 (glutathione peroxidase 7) | 0.94 | 0.6 | 0.64 |
| SOCS6 (suppressor of cytokine signaling 6) | 1.04 | 0.8 | 0.77 |
| PCBP3 (poly(rC) binding protein 3) | 0.99 | 0.66 | 0.67 |
| SLC6A1 | 0.9 | 0.77 | 0.86 |
| SESN2 (sestrin 2) | 1.07 | 0.92 | 0.86 |
| POLD3 (DNA polymerase delta 3, accessory subunit) | 0.83 | 0.68 | 0.82 |
| ECI1 (enoyl-CoA delta isomerase 1) | 0.89 | 0.66 | 0.74 |
| MIXL1 (Mix paired-like homeobox) | 0.85 | 0.68 | 0.8 |
| PABPC1 (poly(A) binding protein cytoplasmic 1) | 0.92 | 0.83 | 0.9 |
